Results are given in words; binding and its absence hold for the method and conditions named. Binding calls can cover weak binding; strength is not graded here.
Molecular target: 6*His-hFXRα-LBD (human farnesoid X receptor alpha, ligand-binding domain) (human)
Assay: AlphaScreen or HTRF; 100 nmol/L 6*His-hFXRα-LBD, 100 nmol/L biotinylated SRC2-3 or NCoR2 peptide, Ivermectin (5 μmol/L) with or without DC646 at 11 μmol/L; same buffer, pH 7.4, room temperature; both purified

Q: For GHSFADPASNLGLEDIIRKALMGSF (biotin on the N-terminus (printed as Bio-)) [Biotin-labeled NCoR2 peptide], which binding is on record?
A: binds

Source: publication PMC11992618, “Development of cyclopeptide inhibitors specifically disrupting FXR–coactivator interaction in the intestine as a novel therapeutic strategy for MASH” (Life Metabolism, 2025)
